No constants are given. Whether binding was seen depends on the method and setting. In cells and extracts the contact can be indirect. Some binding calls cover weakened binding; strength is not graded here. Where a sequence is shown, tags or fusion partners need not be part of it.
Target: T1, Flag-PGK1 wild type (UniProt P00558)
T1 sequence: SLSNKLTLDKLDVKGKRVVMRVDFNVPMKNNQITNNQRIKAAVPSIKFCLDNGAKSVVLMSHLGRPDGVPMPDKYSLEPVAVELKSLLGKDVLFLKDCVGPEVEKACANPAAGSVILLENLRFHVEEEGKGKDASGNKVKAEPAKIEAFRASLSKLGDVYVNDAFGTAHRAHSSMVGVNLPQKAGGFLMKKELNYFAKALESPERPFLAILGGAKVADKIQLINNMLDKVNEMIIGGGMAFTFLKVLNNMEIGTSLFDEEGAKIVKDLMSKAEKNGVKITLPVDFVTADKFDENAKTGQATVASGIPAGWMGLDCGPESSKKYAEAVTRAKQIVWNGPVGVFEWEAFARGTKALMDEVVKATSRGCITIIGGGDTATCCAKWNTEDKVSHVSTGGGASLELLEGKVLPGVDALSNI
Assay: co-IP; anti-FLAG beads, IP of Flag-PGK1 from transfected HEK293T and HCT116 cells, western blot of the partner; for ERK also HCT116 cells with PRMT1 overexpressed, PRMT1 silenced, or treated with the ERK inhibitor SCH772984

By UniProt entry, the sequences of proteins in these tests, tags left out.
UniProt Q99873: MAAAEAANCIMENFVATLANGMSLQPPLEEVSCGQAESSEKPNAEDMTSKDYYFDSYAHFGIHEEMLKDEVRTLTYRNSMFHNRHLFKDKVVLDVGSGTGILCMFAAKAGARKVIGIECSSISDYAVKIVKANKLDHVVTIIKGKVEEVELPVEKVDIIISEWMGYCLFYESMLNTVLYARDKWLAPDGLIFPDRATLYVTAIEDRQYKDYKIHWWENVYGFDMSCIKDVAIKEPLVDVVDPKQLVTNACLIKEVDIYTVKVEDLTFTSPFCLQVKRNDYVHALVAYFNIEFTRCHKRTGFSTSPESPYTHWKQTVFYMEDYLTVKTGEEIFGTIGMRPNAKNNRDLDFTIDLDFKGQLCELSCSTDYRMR

Substance: PRMT1, endogenous (from UniProt Q99873 1-371) (enzyme)
- binding: binds

— PMC10894231
